We go through one molecule from PubChem BioAssay AID977622 (Broad Institute, 2014).

A short description of the experiment: growth inhibition of wild-type GFP E. coli, dose response, h38 mutant RFP, cherry-pick (AID 977622). To be noted: 24 h.

The other results are listed elsewhere or left out.

For the molecule `O=[N+]([O-])c1cc([N+](=O)[O-])c(Nc2nnnn2CCO)c([N+](=O)[O-])c1`, the activity change by setting is: (E. coli WT ribosome GFP fluorescence, mixed culture, h38 mutant RFP at 50 uM) 16.8%; (E. coli mixed culture, total growth OD600 at 50 uM) 4.97%.
